PubChem BioAssay AID1259327 | Drosophila RNAi Screening Center | 2017

- Assay: 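Baseline ATP after transmembrane-protein gene knock-down with water vehicle only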
- Cells: Drosophila S2R+ cells
- Reagent: long dsRNA against Drosophila genes
- Timing: 5 days (water added on day 4, read one day later)
- Treatment: water added as vehicle, no metal, one day before read-out
- Measurement: 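Total ATP measured by luciferase light, scaled to plate mean, duplicates averaged, then z-scored across plates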
- Scale: ATP z-score: higher = more total ATP than typical wells; ATP luminescence: higher = more total ATP
- Call rule: 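Called active when the ATP z-score exceeds 1.5 or falls below -1.5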
- Calls: active = hit: ATP up or down; inactive = no clear ATP change
The whole screen tested about 3,100 reagents; this is a random part of them. 378 of all reagents (12%) were called active. 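Hits include both directions; z-score sign shows ATP rise or fall; raw luminescence values are not plate-normalised.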 Entries without a mark were called inactive. Not given: the amount of reagent.

Which result is listed for Or67b [DRSC11241]?
ATP z-score, duplicate mean: -1.02; ATP luminescence, replicate 1 (RLU): 7.89e5; ATP luminescence, replicate 2 (RLU): 7.38e5

With Or67b [DRSC39658], how do the results read?
ATP z-score, duplicate mean: -0.713; ATP luminescence, replicate 1 (RLU): 3.94e5; ATP luminescence, replicate 2 (RLU): 4.41e5

How did the screen score CG7806 [DRSC03071]?
ATP z-score, duplicate mean: 1.35; ATP luminescence, replicate 1 (RLU): 4.56e5; ATP luminescence, replicate 2 (RLU): 6.99e5

For CG7806 [DRSC39811], how do the results read?
ATP z-score, duplicate mean: 1.6 (active); ATP luminescence, replicate 1 (RLU): 5.42e5; ATP luminescence, replicate 2 (RLU): 6.43e5

With Dop1R2 [DRSC13958], what does the deposit list?
ATP z-score, duplicate mean: -0.485; ATP luminescence, replicate 1 (RLU): 8.58e5; ATP luminescence, replicate 2 (RLU): 8.08e5

What did the screen give for Dop1R2 [DRSC28272]?
ATP z-score, duplicate mean: 1.09; ATP luminescence, replicate 1 (RLU): 1.06e6; ATP luminescence, replicate 2 (RLU): 8.54e5

With CG9717 [DRSC16543], what does the deposit list?
ATP z-score, duplicate mean: -1.01; ATP luminescence, replicate 1 (RLU): 5.75e5; ATP luminescence, replicate 2 (RLU): 1.00e6

Which result is listed for CG2930 [DRSC17730]?
ATP z-score, duplicate mean: 0.688; ATP luminescence, replicate 1 (RLU): 8.20e5; ATP luminescence, replicate 2 (RLU): 7.35e5

For CG2930 [DRSC26303], what was measured?
ATP z-score, duplicate mean: 1.32; ATP luminescence, replicate 1 (RLU): 1.13e6; ATP luminescence, replicate 2 (RLU): 8.94e5

For Vha100-5 [DRSC02175], what does the deposit list?
ATP z-score, duplicate mean: 0.806; ATP luminescence, replicate 1 (RLU): 8.19e5; ATP luminescence, replicate 2 (RLU): 8.05e5

How did the screen score Vha100-5 [DRSC26439]?
ATP z-score, duplicate mean: 3.36 (active); ATP luminescence, replicate 1 (RLU): 3.88e5; ATP luminescence, replicate 2 (RLU): 7.73e5

What is on record for mAChR-A [DRSC28262]?
ATP z-score, duplicate mean: -0.952; ATP luminescence, replicate 1 (RLU): 7.25e5; ATP luminescence, replicate 2 (RLU): 6.93e5

Called active, among the entries above:
CG7806 [DRSC39811]: ATP z-score, duplicate mean = 1.6 (active); ATP luminescence, replicate 1 (RLU) = 5.42e5; ATP luminescence, replicate 2 (RLU) = 6.43e5
Vha100-5 [DRSC26439]: ATP z-score, duplicate mean = 3.36 (active); ATP luminescence, replicate 1 (RLU) = 3.88e5; ATP luminescence, replicate 2 (RLU) = 7.73e5

Next records:
For CG1317 [DRSC08305], what does the deposit list?
ATP z-score, duplicate mean: -1.17; ATP luminescence, replicate 1 (RLU): 5.39e5; ATP luminescence, replicate 2 (RLU): 6.75e5

What did the screen give for CG1317 [DRSC39565]?
ATP z-score, duplicate mean: -0.372; ATP luminescence, replicate 1 (RLU): 3.87e5; ATP luminescence, replicate 2 (RLU): 4.95e5

How did the screen score CG5078 [DRSC11762]?
ATP z-score, duplicate mean: 0.269; ATP luminescence, replicate 1 (RLU): 1.02e6; ATP luminescence, replicate 2 (RLU): 8.43e5

For frj [DRSC03250], how do the results read?
ATP z-score, duplicate mean: 1.03; ATP luminescence, replicate 1 (RLU): 5.66e5; ATP luminescence, replicate 2 (RLU): 5.35e5

With frj [DRSC39648], what does the deposit list?
ATP z-score, duplicate mean: -0.859; ATP luminescence, replicate 1 (RLU): 3.89e5; ATP luminescence, replicate 2 (RLU): 4.25e5

What did the screen give for Gr57a [DRSC06401]?
ATP z-score, duplicate mean: 1.82 (active); ATP luminescence, replicate 1 (RLU): 8.43e5; ATP luminescence, replicate 2 (RLU): 7.26e5

Which result is listed for mthl14 [DRSC07865]?
ATP z-score, duplicate mean: 0.319; ATP luminescence, replicate 1 (RLU): 7.46e5; ATP luminescence, replicate 2 (RLU): 8.10e5

For mthl14 [DRSC39645], what was measured?
ATP z-score, duplicate mean: 0.485; ATP luminescence, replicate 1 (RLU): 4.79e5; ATP luminescence, replicate 2 (RLU): 5.19e5

How did the screen score CG13793 [DRSC02297]?
ATP z-score, duplicate mean: -0.615; ATP luminescence, replicate 1 (RLU): 7.01e5; ATP luminescence, replicate 2 (RLU): 6.21e5

Which result is listed for CG13793 [DRSC28252]?
ATP z-score, duplicate mean: -1.11; ATP luminescence, replicate 1 (RLU): 6.14e5; ATP luminescence, replicate 2 (RLU): 7.58e5

For NAAT1 [DRSC18300], what was measured?
ATP z-score, duplicate mean: 0.292; ATP luminescence, replicate 1 (RLU): 5.38e5; ATP luminescence, replicate 2 (RLU): 6.55e5

What did the screen give for NAAT1 [DRSC25615]?
ATP z-score, duplicate mean: 0.397; ATP luminescence, replicate 1 (RLU): 9.19e5; ATP luminescence, replicate 2 (RLU): 8.26e5
